# The whole screen tested about 320,000 compounds, of which about 2,100 (0.66%) were called active. Inconclusive results, whose numbers are uncertain, are shown with a selection of clear calls. Calls follow the shape of the dose curve; as a rule, active = well fitted inhibition curve with a large enough effect in the signal ratio, with a control signal flat (not every such curve was filed as active); inconclusive = small, poorly fitted or top-dose-only effect, or effect the other way, or a change in a side signal; inactive = flat fitted curve, though single readings scatter; the % refers to the signal ratio. Potencies of inconclusive entries are doubtful fits and often do not repeat.
# Assay: qHTS Assay for Lipid Storage Modulators in Drosophila S3 Cells
# Settings: BODIPY lipid droplet fluorescence, 18-24 h, cells fed with added oleic acid; lipid storage change, negative = inhibition: at 46.1 µM (top of the series) unless noted
# Summary of the method: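 Drosophila S3 cells loaded with oleic acid (400 uM, as added) and compounds at several concentrations; lipid droplets imaged by 488-nm laser-scanning cytometry, 500–530 nm intensity and object ratio to cell channel. Percent activity normalized to 20 uM Triacsin C.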
# % is scaled to controls: 0 for no effect and ±100 for the full control effect; potency is read from the fitted curve at half-maximal effect.
Structure (SMILES),Potency,"lipid storage change, negative = inhibition"
CCOC(=O)c1ccc(N2N=C(C)/C(=C/C=C/c3ccco3)C2=O)cc1,"inconclusive: 20.6 µM [falling, partial curve]",–
CCc1ccccc1NC(=O)CN(C)Cc1c(O)ccc2ccccc12,"inconclusive: 0.116 µM [activator, full curve, poor fit]",–
CC(Sc1nnnn1C)C(=O)Nc1ccc(N2CCOCC2)cc1 (configuration not stated),–,inconclusive: -14.7%
COCc1cc(C)nc(SCC(=O)NCC2CCCO2)c1C#N (configuration not stated),–,inconclusive: -7.28%
CCOC(=O)C1=CC[C@H]2c3c(c4ccccc4n3C)C[C@H]1N2C,"inconclusive: 9.2 µM [falling, partial curve, poor fit]",–
c1csc(C(c2nnnn2C2CCCC2)N2CCOCC2)c1 (configuration not stated),–,inconclusive: 66.7%
COCCNS(=O)(=O)c1cc2[nH]c3c(c2cc1C)C(=O)CC(C)(C)C3,–,inconclusive: 41%
COc1ccc(C)cc1-n1c(SCC(=O)Nc2cccc(C(=O)O)c2)nc2ccccc2c1=O,–,inconclusive: -8.88%
COC(=O)C1CCN(S(=O)(=O)CCNC(=O)c2ccc3c(c2)OCO3)CC1,"inconclusive: 0.146 µM [activator, full curve, poor fit]",–
CC1=C(C(=O)OCc2ccccc2)C(c2ccc(N3CCOCC3)cc2)NC(=O)N1 (configuration not stated),–,inconclusive: -25.1%
COc1ccccc1CN1CC(C(=O)NCc2ccc(C)c(F)c2)CCC1=O (configuration not stated),–,inconclusive: 4.98%
COc1cc2c(C(=O)N3CCN(c4cccc(Cl)c4)CC3)cn(CC(C)C)c(=O)c2cc1OC,"inconclusive: 0.82 µM [rising, single point]",–
CCC(=O)Oc1ccc2c(c1)O/C(=C\c1ccco1)C2=O,–,inconclusive: 34.3%
CN(C)c1cc[n+](CC[n+]2ccc(N(C)C)cc2)cc1,–,inconclusive: 3.89%
COc1ccc(CCNC(=O)C(=O)NCC2CCCN2S(=O)(=O)c2ccc(OC)cc2)cc1 (configuration not stated),–,inconclusive: 16.3%
CCOC(=O)c1c(C)[nH]c(C(=O)N/N=C/c2ccc(Br)cc2)c1C,–,inconclusive: -18.7%
COc1ccc(S(=O)(=O)CCC(=O)N2CC(=O)N(CCc3ccccc3)C(=O)C2)cc1,–,inconclusive: 21.8%
O=C(CN(C(=O)c1csnn1)c1ccc2c(c1)OCCO2)NCc1ccc(F)cc1,"inconclusive: 0.58 µM [activator, single point]",–
O=C(NCc1cccs1)C1CCCN1C(=O)Nc1cccc(Cl)c1 (configuration not stated),"inconclusive: 20.6 µM [falling, single point]",–
Cc1cc(=O)n2nc(N3CCC(C(=O)NCc4cccc(Br)c4)CC3)sc2n1,–,inconclusive: 313%
NC1(N)OC(CN2C(=O)c3ccccc3C2=O)CS1 (configuration not stated),–,inconclusive: 1.75%
O=C(c1nn2c(C(F)(F)F)cc(-c3cccs3)nc2c1Br)N1CCCc2ccccc21,"inconclusive: 0.0052 µM [activator, full curve, poor fit]",–
CCOc1cc(/C=N/NC(N)=O)cc(Br)c1OCc1ccccc1F,–,inconclusive: 21.5%
Cc1ccc(-c2nnc(Nc3ccc(CC(N)=O)cc3)c3ccccc23)cc1,"inconclusive: 23.1 µM [falling, single point]",–

# Two entries from above, as tab-separated lines.
Structure (SMILES)	Potency	lipid storage change, negative = inhibition
COC(=O)C1CCN(S(=O)(=O)CCNC(=O)c2ccc3c(c2)OCO3)CC1	inconclusive: 0.146 µM [activator, full curve, poor fit]	–
CC1=C(C(=O)OCc2ccccc2)C(c2ccc(N3CCOCC3)cc2)NC(=O)N1 (configuration not stated)	–	inconclusive: -25.1%

# Carrying on:

Structure (SMILES),Potency,"lipid storage change, negative = inhibition"
O=[N+]([O-])c1cccc(/C=C/c2ccc3cccc(O)c3n2)c1,–,inconclusive: -24.5%
COc1ccc(S(=O)(=O)N2CCCCCC2)cc1N,–,inconclusive: 9.13%
COC(=O)c1ccc(C2NC(=O)c3ccccc3O2)cc1 (configuration not stated),–,inconclusive: -54.8%
Cc1ccc(-n2cnnn2)c(S(=O)(=O)N2CCOCC2)c1,"inconclusive: 4.61 µM [falling, single point]",–
CN(C)NC(=S)Nc1ccc2nc(-c3ccccn3)c(-c3ccccn3)nc2c1,–,inconclusive: -30.2%
O=C(NCCCN1CCOCC1)c1cc2cc(Br)ccc2oc1=O,–,inconclusive: 0.682%
c1cnc2ccc(C(c3nnnn3C3CCCC3)N3CCSCC3)cc2c1 (configuration not stated),–,inconclusive: -4.63%
O=C(CSc1nnc(N2CCCC2)n1-c1ccccc1Cl)N1CCN(c2ccccn2)CC1,"inconclusive: 23.1 µM [activator, single point]",–
COc1ccc(NS(=O)(=O)c2ccc3c(c2)[C@H]2C=CC[C@H]2[C@@H](c2ccc(C(=O)O)cc2)N3)cc1,–,inconclusive: 28.6%
Cc1ccccc1Nc1nc(CSc2nnc(-c3ccoc3C)n2C)cs1,"inconclusive: 1.84 µM [activator, partial curve]",–
CCOc1ccc2nc(Cl)c(CN(C(=O)c3cnccn3)C3CCCC3)cc2c1,–,inconclusive: -8.39%
O=C(COC(=O)c1nc(Cl)ccc1Cl)Nc1ccc2c(c1)OCO2,–,inconclusive: 4.95%
O=[N+]([O-])c1cccc(N/N=C/c2cccc(O)c2O)c1,"inconclusive: 6.51 µM [cytotoxic, single point]",–
CCc1cc2c(-c3ccccc3)cc(=O)oc2cc1OCC(C)=O,active: 0.651 µM,–
COc1ccc(NC(=O)C2OCCc3ccccc32)c(OC)c1 (configuration not stated),–,inconclusive: 24.1%
Cc1cccc(C(=O)Nc2ccccc2-c2nnn(CC(=O)Nc3ccc4c(c3)OCCO4)n2)c1,–,inconclusive: 7.16%
CS(=O)(=O)N(Cc1ccccc1)c1ccc(C(=O)NCc2cccnc2)cc1,"inconclusive: 23.1 µM [activator, single point]",–
COc1ccc(OCC(O)CNC(=O)c2ccc(OC)cc2)cc1 (configuration not stated),–,inconclusive: -35.7% [cytotoxic] [at 0.00295 µM]
CC(C)CN(Cc1cc(=O)oc2cc(-c3ccccc3)c(O)cc12)CC(C)C,"inconclusive: 29.1 µM [falling, single point]",–
O=C(CSc1nnc(Cn2nnc3ccccc32)o1)N(Cc1ccc(Cl)cc1)c1ccccc1,–,inconclusive: 16.4%
NNc1ccc2c(C(F)(F)F)cc(C(F)(F)F)nc2n1,–,inconclusive: 7.33%
O=C(NN=c1c(=O)c2ccccc2c1=O)c1ccccc1,"inconclusive: 2.31 µM [activator, partial curve]",–
COc1cccc(N(CC(=O)NC2CCCC2)C(=O)Cn2nnc(-c3ccc(C)cc3)n2)c1,–,inconclusive: 50.4%

# — PubChem BioAssay AID2685 (National Center for Advancing Translational Sciences (NCATS), 2010)
